Results on 13 sequences are retold here after a protein production outcome set (Wang et al. 2014).
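Note: failed if final PepcDB status was selected cloned or expressed and not failed if soluble or beyond.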

A short description of the data set: label from the status in PepcDB records.
With “FVNVGERTNVTGSKKFLRLIREEKFAEALEVAQQQVEAGAQIIDINMDEGMLDSQNAMVHFLNLVASEPDISRVPIMIDSSKWEIIEAGLKCVQGKPVVNSISLKEGYDEFVEKARLCRQYGAAIIVMAFDETGQADTAARKREICKRSYDVLVNEVGFPAEDIIFDPNVFAVATGIEEHNNYGVDFIEATGWIKQNLPHAMISGGVSNVSFSFRGNEPVREAIHSVFLYHAIKQGMTMGIVNAGQMAIYDDIPKELKDAVEDVVLNQNQGESGQNATEKLLEVAEKFRGHSGAQREA”, the protein production entry is on record as “failed”.

In the case of “IIGTWLWDLPSDRFTVDEAFARAFGLDPALGRDGLSLAQIVATVHPDDRAGLATAIEEAIKRGGPYAHQYRVRRTDGKYYWLEANGRVEHGPDGTPLSFPGVLIDVDDRRALVAERDRAIAELRALNETLEQRVAEARAELLRSAEQLRQSQKMEAVGQLTGGLAHDFNNLLAGISGSLELMSSRIRQ”, the protein production result was “failed”.

On to “MAANLSRNGPALQEAYVRVVTEKSPTDWALFTYEGNSNDIRVAGTGEGGLEEMVEELNSGKVMYAFCRVKDPNSGLPKFVLINWTGEGVNDVRKGACASHVSTMASFLKGAHVTINARAEEDVEPECIMEKVA”, for which the protein production result is listed as “not failed”.

For the sequence “MALYFDHRIKAPDTPSSPSHITWHPTHPFLAVASISPSSGGNVDIYLEQGEPVPDTHIERSFQATSLCWHPTRLILAIGWETGEVIMFNKQDKEQHTVPLPHTTDIAILSWSTSGSCLVSGDKLGVLLLWRLDQRGRVQGTPLLKHEYGKALTHCIFRLPPPGEDLVQLAKAAVSGDEKALDMFNWRKSSFGSFLKTGSQEGLSFFVSLMDGTVHYVDEKGKTAQVASTDSSIQTLFYIERREALVVVTENLLLSLYVVTPEGEAEEVMKVKLSGKTGCRADITLIEGSLLVTAIGEPVLRFWDLERGENYILSLQEKFGFEKGESINCVCFCKAKGLLAAGTNKGRVAMWKKVPSFPNGRGAEGKDMWALQTPTELEGNITQIKWGSRKNLLAVSSTESVSILSEQAMSSHFHQQVAAVQISPSLVNVSFLSTGGTHSLHTDMHISGVFATKDAVAVWNGKQVAIFEPSGSTLRNAG”, the protein production entry was “failed”.

As to “MDGGYDQSGGASRYFHNLFRPELHHQLQPQPQLHPLPQPQPQPQPQQQNSDDESDSNKDPGSDPVTSGSTGKRPRGRPPGSKNKPKPPVIVTRDSPNVLRSHVLEVSSGADIVESVTTYARRRGRGVSILSGNGTVANVSLRQPATTAAHGANGGTGGVVALHGRFEILSLTGTVLPPPAPPGSGGLSIFLSGVQGQVIGGNVVAPLVASGPVILMAASFSNATFERLPLEDEGGEGGEGGEVGEGGGGEGGPPPATSSSPPSGAGQGQLRGNMSGYDQFAGDPHLLGWGAAAAAAPPRPAF”, the protein production entry is “failed”.

With “MFSEQAAQRAHTLLSPPSANNATFARVPVATYTNSSQPFRLGERSFSRQYAHIYATRLIQMRPFLENRAQQHWGSGVGVKKLCELQPEEKCCVVGTLFKAMPLQPSILREVSEEHNLLPQPPRSKYIHPDDELVLEDELQRIKLKGTIDVSKLVTGTVLAVFGSVRDDGKFLVEDYCFADLAPQKPAPPLDTDRFVLLVSGLGLGGGGGESLLGTQLLVDVVTGQLGDEGEQCSAAHVSRVILAGNLLSHSTQSRDSINKAKYLTKKTQAASVEAVKMLDEILLQLSASVPVDVMPGEFDPTNYTLPQQPLHPCMFPLATAYSTLQLVTNPYQATIDGVRFLGTSGQNVSDIFRYSSMEDHLEILEWTLRVRHISPTAPDTLGCYPFYKTDPFIFPECPHVYFCGNTPSFGSKIIRGPEDQTVLLVTVPDFSATQTACLVNLRSLACQPISFSGFGAEDDDLGGLGLGP”, the protein production result was “failed”.

In the case of “MGREVVEVLMDRNADVSSARVHVAPKIAAEETDEEFEVKECTEEKSLSENAPNVGSAERVGAQKSPKTRNGNAKVSKQQDAPLLAVRKPLQPENKKHIDDEDNCSIASSVATSMRMGKSGLTYGSAPTFRSAQRAEKRKEYYQKLEEKNQALEAERNELEQRQKDEQEAALKQLRKNLKFKAKPVPNFYYEAPPAKPELKKLPLTRPKSPKLILSRRKSFSDAVSSSSREEILKTVSNRNRHSTGTVQNKDDDHRNKNTNAAHDSPRVRSGKGKSGLKPVNESSEEA”, the protein production result is “failed”.

For the sequence “MLASTSPTLVGQGLELRRLWEGAGVSGPSGCSVVLRPHCPGRSGRDSSRAGSLRAEPLRVTCTRDFSCVLGHEALVTSRFPTYVAPMAPLVPGPPLEASPTTLDAAVRWGLQRPVRGHMAPGQAGGRGDASALGAQYSWARDGRSAVGSKLSWVGPAAPESKAAQGREMGRDVGKAVDCLDLSGPDGASCLQLSLRKSELFPAARRPGRPADPGLSPRCLRRPPLRPGPASTPLRGPGAARPPPLPPHSRGRSAVSFLAFLPPQRSPSAPREAAGSRGGLRASGGRCGGPAGAAAGSGGGGDAPGPAGRAMQRSRAGADEAALLLAGLALRELEPGCGSPGRGRRGPRPGPGDEAAPALGRRGKGSGGPEAGADGLSRGERGPRRAAVPELSAQPAGSPRASLAGSDGGGGGGSARSSGISLGYDQRHGSPRSGRSDPRPGPGPPSVGSARSSVSSLGSRGSAGAYADFLPPGACPAPARSPEPAGPAPFPLPALPLPPGREGGPSAAERRLEALTRELERALEARTARDYFGICIKCGLGIYGAQQACQAMGSLYHTDCFTCDSCGRRLRGKAFYNVGEKVYCQEDFLYSGFQQTADKCSVCGHLIMEMILQALGKSYHPGCFRCSVCNECLDGVPFTVDVENNIYCVRDYHTVFAPKCASCARPILPAQGCETTIRVVSMDRDYHVACYHCEDCGLQLSGEEGRRCYPLAGHLLCRRCHLRRLQPGPLPSPTVHVTEL”, the protein production entry is recorded as “failed”.

As to “MLSLPLDPVQAPWAAIAVILAMLVFFVLEILPVEVTAIVGATAMVLLGLLPQEEVLDVLSNAAPWTIAAMFVIVGALVRTGALDWITRLATQHVGLRPRTTVAVLCVGIVAMSAVVNNTPIVVVFLPVFIQLAAEMRIAPSKLLIPLSYLSIMGGTVTLIGTSTNLVVDGVARANGLDPFGIFEITPVGLPLAIVGMLYLAFLGPKLLPARSSMAGMLTGKRRMKFFTEVAVPEGSPLIGKTLEQVEIFRRSDVQVIDVLRGDSSLRRALATVELAAGDRVVLRSPMGEILTLQDHRHLQLVNRLASVQTQTVEVLITPGCRLIGRSLGDLRLRRRYGVYPLAVHRRNRNLGRQMDDVVVAVGDTLLLEGAMDDIRRLAQEMDLTDLSHPQERPFRRRRAPIAVAVLAAIILLSSFDVAPIEILAFMGVTVVLVTRCIDSEEAFASIDGRLMAMLFGMIAVGAGLDHSGAVELIVGWAEPWLADLPAWLLIFCVFALTSLLTELLSNNAVAVVVTPVAIELAQRLGVDPRPILVAVMMGASFGFATPIGYQCNLLVYGPGGYTFGDFLRIGVPLNVLMGVAAAIVIPLVYGL”, the protein production entry was “failed”.

For the sequence “MPVLAPRDSRLPVTVLSGFLGAGKTTLLNRILHNREGLRVAVIVNDMSEINIDAQLLREGGAALRRTDETLVEFSNGCICCTLRDDLLQEVKRLASERRYDYLLIESTGIAEPMPVAATFAVRDADGFSLSDIARLDTMVTVVDGSRFLEDFGSAATLAELGQQAGPDDTRGLVQLLGDQVEFADVLVISKCDQIDTPRLHRLHAVLRALNRDAAIVDAAHGEVPLRQLLDTGRFDFTRAQLAPGWMQELRGQHTPETEEYGITSFVYRARRPFHPQRFARMVQGGLPQVIRSKGFFWLASRMDWVGELSSVGGATQTNAAGFWFAARHRVDAHAIGEPLQTSITPLPYTDIGWQRQQTQCWTAPLPQLHEVGDASEYAAMQRLWHPLWGDRRQELAVIGVDMDAPRTRAALDACLLSDHELRQGPAQWQLLDDPFPHWQR”, the protein production entry is recorded as “failed”.

In the case of “MTPEKHRARKRQAWLWEEDKNLRSGVRKYGEGNWSKILLHYKFNNRTSVMLKDRWRTMKKLKLISSDSED”, the protein production entry is given as “not failed”.

For the sequence “SAKLGFRVSVHMSADARQWKKDKLRSLGVNVVEYASDYGVAVEQGRKAAESDPNCFFIDDENSTTLFLGYAVAGLRLKQQLIDQNIQVDAEHPLFVYLPCGVGGGPGGVSFGLKHALGEHVHCIFAEPTHSPCMLLGVYTGLHDQICVADIGLDNATAADGLAVGRASGFVGRAMQDLIDGYYTISDQHLFEFIRLMDQTQSIQLEPSAVAGVLGIYHVNTNKSYQQAYHLNAIQLKNATHLIWATGGGMVPPNEMQKYL”, the protein production result is on record as “failed”.

In the case of “TDLMLVADFNGRIVAVNPAWTQLLGWEREELEGSSFYDFIHPQDSLAAAGAAADLSRGESFSRFENRFRHRDGSYRWMAWSAVPDPHHIHAVGRDMQAEREAAQALRKTEDILRQAQKMEAVGQLTGGVAHDFNNLLTVIRSSTDLLRRNLS”, the protein production result is listed as “failed”.
